Experimental data published in patent publication US20040259936A1, “Treatment of neoplasia” (priority 2001, published 2004).
Some results were stated once for a whole list of compounds, not compound by compound.

What was measured:
Assay in all cases: Cannabinoid-induced apoptosis in vitro (TUNEL)
Format in all cases: cell-based, human
[1] = system: Molt-4; details: 4 hours; for apoptosis (TUNEL): serum-free medium; for concentration leading to significant levels of apoptosis (TUNEL): Molt-4, serum-free medium
Description: (§1) The cells were washed twice with PBS. […] Five thousand cells were analyzed per sample.

[2] = system: Jurkat; details: serum-free medium, 4 hours
Description: as §1

[3] = system: Sup-T1; details: 4 hours; for apoptosis (TUNEL): serum-free medium; for concentration leading to significant levels of apoptosis (TUNEL): Sup-T1, serum-free medium

CCCCCCC(C)(C)c1cc(O)c2c(c1)OC(C)(C)[C@@H]1CC=C(CO)C[C@@H]21 [HU-210]
apoptosis (TUNEL) ([1]; Molt-4, 511M): greater than 80%
concentration leading to significant levels of apoptosis (TUNEL) [1]: greater than or equal to 5 μM
apoptosis (TUNEL) ([2]; 511M): greater than 80%
concentration leading to significant levels of apoptosis (TUNEL) [2]: greater than or equal to 5 μM
apoptosis (TUNEL) ([3]; Sup-T1, 511M): greater than 80%
concentration leading to significant levels of apoptosis (TUNEL) [3]: greater than or equal to 5 μM

CCCCCc1cc(O)c2c(c1)OC(C)(C)[C@@H]1CCC(C)=C[C@@H]21 [THC, Delta-9-tetrahydrocannabinol]
apoptosis (TUNEL) ([1]; Molt-4, 10 μM): greater than 80%
concentration leading to significant levels of apoptosis (TUNEL) [1]: greater than or equal to 5 μM
apoptosis (TUNEL) ([2]; 10 μM): greater than 80%
concentration leading to significant levels of apoptosis (TUNEL) [2]: greater than or equal to 5 μM
apoptosis (TUNEL) ([3]; Sup-T1, 10 μM): greater than 80%
concentration leading to significant levels of apoptosis (TUNEL) [3]: greater than or equal to 5 μM
